Paper PMC6554399

Sequences of proteins named here, by UniProt entry; tags and fusion partners are left off. Residues count along the entry.
UniProt P18065, residues 36-325: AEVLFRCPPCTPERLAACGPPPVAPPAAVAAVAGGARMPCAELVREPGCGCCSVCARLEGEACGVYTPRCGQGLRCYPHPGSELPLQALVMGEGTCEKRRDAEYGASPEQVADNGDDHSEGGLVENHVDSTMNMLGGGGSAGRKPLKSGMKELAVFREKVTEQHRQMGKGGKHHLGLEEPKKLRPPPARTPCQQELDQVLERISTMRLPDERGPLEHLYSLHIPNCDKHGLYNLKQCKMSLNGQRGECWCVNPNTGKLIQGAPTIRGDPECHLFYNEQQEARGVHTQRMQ
UniProt P06276, residues 29-602: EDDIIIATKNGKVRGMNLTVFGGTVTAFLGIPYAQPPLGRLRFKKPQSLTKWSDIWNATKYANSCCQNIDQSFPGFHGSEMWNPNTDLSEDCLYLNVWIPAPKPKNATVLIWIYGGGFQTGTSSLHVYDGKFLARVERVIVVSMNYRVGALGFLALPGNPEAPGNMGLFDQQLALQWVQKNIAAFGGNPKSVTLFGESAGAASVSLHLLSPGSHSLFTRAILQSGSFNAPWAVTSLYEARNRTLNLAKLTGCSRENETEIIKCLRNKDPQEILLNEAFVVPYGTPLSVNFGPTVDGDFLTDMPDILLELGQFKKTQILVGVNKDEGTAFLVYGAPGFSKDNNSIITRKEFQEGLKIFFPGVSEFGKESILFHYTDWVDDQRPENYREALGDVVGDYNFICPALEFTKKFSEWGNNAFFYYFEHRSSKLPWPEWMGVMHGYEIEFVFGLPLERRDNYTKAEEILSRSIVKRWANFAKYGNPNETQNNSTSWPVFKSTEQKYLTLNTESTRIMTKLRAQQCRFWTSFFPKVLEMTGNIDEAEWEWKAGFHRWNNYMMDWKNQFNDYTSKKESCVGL

Molecular target: insulin growth factor binding protein 2 (IGFBP2) (human (endogenous in plasma)) (UniProt P18065)
Assay: affinity purification with mass spectrometry; IP-MS/MS: antibody against the bait covalently coupled to magnetic beads, pooled human EDTA plasma diluted 1:10 in assay buffer (PVA, PVP, casein, 10% rabbit IgG), heat-treated (56 °C, 30 min) or untreated, overnight at 23 °C; washed with 0.03% Chaps in PBS, digested on beads, LC-MS/MS, MaxLFQ, z-scores over 414 IPs

binding: binds
Substance: butyrylcholine esterase (BCHE) (from UniProt P06276 29-602) (enzyme)

These are yes or no findings as the source states them, for the method shown. In cells and extracts the contact can be indirect. A yes stands for co-enrichment or nearness to the bait. Other partners may have been found.
